Measured values from PubChem BioAssay AID256 (DTP/NCI, 2004).
The list is a part of this screen's results and no random one: it is rich in T/C values a quarter to a half above the control, in often repeated tests (any T/C) and in doses without a T/C. Further doses and runs are listed elsewhere. T/C: endpoint of the treated group in % of that of the vehicle group. Some doses have a count of surviving animals in place of a T/C: the source holds a T/C of zero for them, seemingly a mark for toxic or unscored doses. Some doses without a T/C left all or most animals alive at the check, yet need not have been tolerated: the source hardly ever lists a survival T/C far under the control, and the zero likely stands for such cases as well. Survivors were counted at the toxicity check, usually on the fifth day, unless a day is given; later deaths do not show. Schedules are NCI's codes, taken here to give the interval after Q, in days (D) or hours (H), and the number of doses after X. For survival time, the PubChem record calls one and a half times the control and up active, and a quarter to a half above the control has no call in these data; cut-offs in other NCI protocols can differ.

System: CD2F1 mice, L1210 leukemia ip, survival T/C
Experiment: NCI In Vivo Anticancer Drug Screen. Data for tumor model L1210 Leukemia (intraperitoneal) in CD2F1 (CDF1) mice
Conditions: higher T/C = longer survival
Procedure, shortened: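 Activity against a transplanted murine tumor was judged by comparing the compound group with a vehicle group. The outcome in the treated animals was divided by that in the controls.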

[1] = T/C endpoint: mean survival time, dose: 6.0 mg/kg/injection, schedule: Q01DX001 (ip), vehicle: distilled water + Tween-80
[2] = T/C endpoint: mean survival time, dose: 24.0 mg/kg/injection, schedule: Q01DX001 (ip), vehicle: distilled water + Tween-80
[3] = T/C endpoint: mean survival time, dose: 400.0 mg/kg/injection, schedule: Q04DX003 (ip), vehicle: saline with Tween-80

## COC12[C@@H]3N[C@@H]3CN1C1=C(C(=O)C(NCCSSCCNC3=C(C)C(=O)C4=C(C3=O)C(COC(N)=O)[C@]3(OC)C5N[C@@H]5CN43)=C(C)C1=O)[C@@H]2COC(N)=O (stereo not given in full)
T/C endpoint: mean survival time, dose: 3.0 mg/kg/injection, schedule: Q01DX001 (ip), vehicle: distilled water + Tween-80
  T/C: 125 % of control
[1]
  T/C: 127 % of control
[2]
  survivor count: 5 of 6
T/C endpoint: median survival time, dose: 0.4 mg/kg/injection, schedule: Q01DX009 (ip), vehicle: other
  T/C: 132 % of control
T/C endpoint: median survival time, dose: 0.8 mg/kg/injection, schedule: Q01DX009 (ip), vehicle: other
  T/C: 140 % of control
T/C endpoint: median survival time, dose: 1.6 mg/kg/injection, schedule: Q01DX001 (ip), vehicle: other
  T/C: 140 % of control
T/C endpoint: median survival time, dose: 1.6 mg/kg/injection, schedule: Q01DX009 (ip), vehicle: other
  T/C: 145 % of control
T/C endpoint: median survival time, dose: 1.6 mg/kg/injection, schedule: Q03DX003 (ip), vehicle: other
  T/C: 145 % of control
T/C endpoint: median survival time, dose: 1.6 mg/kg/injection, schedule: Q04DX003 (ip), vehicle: other
  T/C: 143 % of control
T/C endpoint: median survival time, dose: 3.2 mg/kg/injection, schedule: Q01DX001 (ip), vehicle: other
  T/C: 143 % of control
T/C endpoint: median survival time, dose: 6.4 mg/kg/injection, schedule: Q01DX001 (ip), vehicle: other
  T/C: 149 % of control
T/C endpoint: median survival time, dose: 9.6 mg/kg/injection, schedule: Q03DX003 (ip), vehicle: other
  T/C: 145 % of control
T/C endpoint: median survival time, dose: 12.8 mg/kg/injection, schedule: Q01DX001 (ip), vehicle: other
  T/C: 142 % of control
T/C endpoint: median survival time, dose: 12.8 mg/kg/injection, schedule: Q04DX003 (ip), vehicle: other
  T/C: 144 % of control

## C/C(=N/O)c1cccc([N+](=O)[O-])c1
T/C endpoint: mean survival time, dose: 400.0 mg/kg/injection, schedule: Q01DX009 (ip), vehicle: saline with Tween-80
  survivor count: 3 of 6

## O=C(CCC(=O)NO)NO
T/C endpoint: mean survival time, dose: 400.0 mg/kg/injection, schedule: Q04DX002 (ip), vehicle: saline
  survivor count: 3 of 3

## CC1CP(c2ccccc2)(c2ccccc2)(c2ccccc2)OC1(C(=O)c1ccccc1)c1ccccc1 (stereo not given)
T/C endpoint: mean survival time, dose: 50.0 mg/kg/injection, schedule: Q01DX009 (ip), vehicle: saline with Tween-80
  survivor count: 3 of 6
T/C endpoint: mean survival time, dose: 100.0 mg/kg/injection, schedule: Q01DX009 (ip), vehicle: saline with Tween-80
  survivor count: 1 of 6
T/C endpoint: mean survival time, dose: 200.0 mg/kg/injection, schedule: Q04DX003 (ip), vehicle: saline with Tween-80
  survivor count: 0 of 6
[3]
  survivor count: 0 of 6

## Cc1cc(N(CC(C)Cl)CC(C)Cl)ccc1N=Nc1ccccc1C(=O)O (stereo not given)
T/C endpoint: mean survival time, dose: 25.0 mg/kg/injection, schedule: Q01DX009 (ip), vehicle: Klucel (hydroxypropylcellulose) (HPC)
  survivor count: 6 of 6
T/C endpoint: mean survival time, dose: 50.0 mg/kg/injection, schedule: Q01DX009 (ip), vehicle: Klucel (hydroxypropylcellulose) (HPC)
  survivor count: 0 of 3
T/C endpoint: mean survival time, dose: 100.0 mg/kg/injection, schedule: Q01DX009 (ip), vehicle: Klucel (hydroxypropylcellulose) (HPC)
  survivor count: 0 of 3
T/C endpoint: mean survival time, dose: 200.0 mg/kg/injection, schedule: Q01DX009 (ip), vehicle: Klucel (hydroxypropylcellulose) (HPC)
  survivor count: 0 of 3

## CN(C)c1ccc(N=Nc2ccccc2)cc1
T/C endpoint: mean survival time, dose: 125.0 mg/kg/injection, schedule: Q01DX009 (ip), vehicle: saline with Tween-80
  survivor count: 6 of 6
T/C endpoint: mean survival time, dose: 250.0 mg/kg/injection, schedule: Q04DX003 (ip), vehicle: saline with Tween-80
  survivor count: 4 of 6

## Cc1ccc(S(=O)(=O)OCC2C3CCC(C3)C2COS(=O)(=O)c2ccc(C)cc2)cc1 (stereo not given)
T/C endpoint: mean survival time, dose: 200.0 mg/kg/injection, schedule: Q04DX002 (ip), vehicle: saline with Tween-80
  survivor count: 3 of 3
T/C endpoint: mean survival time, dose: 400.0 mg/kg/injection, schedule: Q04DX002 (ip), vehicle: saline with Tween-80
  survivor count: 3 of 3

## C=C(C)CNC1=C(C)C(=O)C2=C(C1=O)[C@H](COC(N)=O)[C@]1(OC)[C@@H]3N[C@@H]3CN21
[1]
  T/C: 138 % of control
[2]
  T/C: 127 % of control
T/C endpoint: mean survival time, dose: 36.0 mg/kg/injection, schedule: Q01DX001 (ip), vehicle: distilled water + Tween-80
  survivor count: 5 of 6

## C=CCNc1ccc(OC)cc1
[3]
  survivor count: 0 of 6

## CCCCCC(C)NCCO (stereo not given)
T/C endpoint: mean survival time, dose: 150.0 mg/kg/injection, schedule: Q01DX001 (ip), vehicle: saline
  survivor count: 2 of 6
T/C endpoint: mean survival time, dose: 300.0 mg/kg/injection, schedule: Q01DX001 (ip), vehicle: saline
  survivor count: 0 of 6

## O=C(CC(O)(C(F)(F)F)C(F)(F)F)c1ccc(Cl)cc1
[3]
  survivor count: 3 of 6
